Test results: PubChem BioAssay (NCATS)
Some of the results follow. Shown are side measurements of this screen, not its main read-out; they come without a call. The list favours compounds with an active or inconclusive main result. Words in brackets tell the shape of the fitted curve; partial curves, single points and poor fits give uncertain potencies.

Assay: S16 Schwann cell PMP22 intronic element beta-lactamase assay (AID 624044)
Conditions: S16 rat Schwann cells, PMP22 element beta-lactamase FRET, 24 h; measured here: 460 nm blue channel
Excerpt: Description: Charcot-Marie-Tooth-Association [CMTA] National Center for Advancing Translational Sciences [NCATS] Charcot-Marie-Tooth (CMT) disease was first characterized by Jean-Martin Charcot and Pierre Marie in France and, independently, by Howard Henry Tooth in England in 1886. CMT is one of the most common inherited neurological diseases, affecting approximately 1 in 2,500 Americans. […] The most prevalent type of CMT is known as CMT1A and caused by a duplication of the PMP22 gene which leads to over-expression of this protein. PMP22 is a glycosylated intrinsic membrane protein accounting for 2-5% of the myelin protein content, and its over-expression results in demyelination and subsequently axonal loss. A pair of cellular transcription-based assays was developed in the S16 rat Schwann cell lines (Hai, M., et al., 2002) stably transfected with orthogonal reporters - firefly luciferase (Fluc) and beta-lactamase (beta-Lac) - whose expression is driven by an intronic regulatory element of the PMP22 gene (Jones, E.A., et al., 2011) to recapitulate endogenous expression of PMP22. The current assay employs Blac as a reporter of PMP22 expression. A comprehensive library of approved drugs, the NCGC Pharmaceutical Collection (Huang, R., et al., 2011), was screened in the cross-validating platform of the orthogonal reporter assays to identify drug modulators inhibitory towards PMP22 expression. A set of counter-screens was devised to address non-specific activity of the library. An ATP-dependent CellTiter-Glo assay (developed by Promega Corp) was utilized to control cell viability. In addition, biochemical Fluc enzyme assay was performed to assess direct inhibition of the Fluc enzymatic activity. References Hai, M., Muja, N., DeVries, G.H., Quarles, R.H. and Patel, P.I. Comparative analysis of Schwann cell lines as model systems for myelin gene transcription studies. J Neurosci Res, 2002. 69(4): pp 497-508 Huang, R., Southall, N., Wang, Y., Yasgar A., Shinn P., Jadhav, A. , Nguyen, D.-T. and Austin, C.P., The NCGC pharmaceutical collection: a comprehensive resource of clinically approved drugs enabling repurposing and chemical genomics. Sci Transl Med, 2011. 3(80): p. 80ps16.
S16 Schwann cell PMP22 intronic element beta-lactamase assay The beta-Lac-expressing S16 cells were seeded in black clear-bottom 1536 well plates at between 500-750 cells/6uL in DMEM medium containing 10% FBS, w/o phenol red. After overnight incubation at 37 degree Celsius/5% C02, 23 nL of compounds or DMSO were delivered to each well using a pin tool, followed by 24h-incubation at 37 degree Celsius/5% C02. Then one microl of LiveBLAzer FRET B/G detection mix (Invitrogen) was added to each well. An EnVision plate reader (PerkinElmer) was used to detect the dual beta-Lac output composed of fluorescence at 460nm for beta-Lac expression and FRET at 535nm for cell viability. The % signal at 535 nm was scaled to a full range of DMSO and zero and then normalized using the maximum response observed in the screen as 100% activity. The % signal at 460nm was normalized to the average readings of potassium clavulanate (a positive control) - treated cells relative to DMSO-treated cells (0% Activity). The concentration-effect curves were then classified based on curve quality (r2), response magnitude and degree of measured activity.
With CCCN[C@H]1CCc2nc(N)sc2C1 the AC50 was 501 nM [falling, partial curve, poor fit]. For Cc1c(O)cccc1C(=O)N[C@@H](CSc1ccccc1)[C@H](O)CN1C[C@H]2CCCC[C@H]2C[C@H]1C(=O)NC(C)(C)C, the AC50 was 25100 nM [falling, single point]. For O=C(O)[C@H]1CN(C/C=C/P(=O)(O)O)CCN1, the AC50 was 25100 nM [rising, single point]. With C[C@@H]1CC2C3CCC4=CC(=O)C=C[C@]4(C)[C@@]3(F)[C@@H](O)C[C@]2(C)[C@@]1(O)C(=O)COC(=O)c1cccc(S(=O)(=O)O)c1 (stereo not given in full) the AC50 was 14100 nM [falling, partial curve, poor fit]. With NC(=O)[C@H]1O[C@@H](O)[C@H](O)[C@@H](O)[C@@H]1O the AC50 was 14100 nM [falling, single point]. In the case of Nc1nc2[nH]cc(CCc3ccc(C(=O)NC(CCC(=O)O)C(=O)O)cc3)c2c(=O)[nH]1 (stereo not given), the AC50 was 79.4 nM [falling, full curve, poor fit]. With CCN(CC)CCOCCOC(=O)C(CC)(CC)c1ccccc1 (tested in a mixture with another compound) the AC50 was 12600 nM [rising, full curve, poor fit]. In the case of NC(=O)NS(=O)(=O)c1ccc(N)cc1, the AC50 was 999 nM [falling, full curve, poor fit]. For C=C[C@@]1(C)CC(=O)[C@]2(O)[C@@]3(C)[C@@H](O)CCC(C)(C)[C@@H]3[C@H](O)[C@H](OC(C)=O)[C@@]2(C)O1, the AC50 was 562 nM [falling, full curve]. In the case of CC(=O)OCC(=O)[C@@]12OC(C)(C)O[C@@H]1C[C@H]1[C@H]3C[C@H](F)C4=CC(=O)C=C[C@@]4(C)[C@]3(F)[C@H](O)C[C@@]12C, the AC50 was 21.3 nM [falling, full curve, poor fit]. In the case of COc1ccc(CC(N)C(=O)NC2C(CO)OC(n3cnc4c(N(C)C)ncnc43)C2O)cc1 (stereo not given), the AC50 was 9990 nM [falling, full curve]. For CCCCCCNC(=O)n1cc(F)c(=O)[nH]c1=O, the AC50 was 5010 nM [falling, full curve, poor fit]. With COc1ccc(-c2cc(=S)ss2)cc1 the AC50 was 35.5 nM [falling, full curve, poor fit]. For CCC(C(=O)C(C)C(O)C(C)CCc1ccc(C)c(O)c1C(=O)O)C1OC(CC)(C2CC[C@@](O)(CC)C(C)O2)CC1C (stereo not given in full), the AC50 was 7070 nM [falling, full curve]. In the case of C[C@]12CCC(=O)C=C1CC[C@@H]1[C@@H]2[C@@H](O)C[C@@]2(C)[C@H]1CC[C@]2(O)C(=O)COP(=O)(O)O, the AC50 was 8910 nM [falling, partial curve, poor fit]. With FCOC(C(F)(F)F)C(F)(F)F the AC50 was 891 nM [falling, full curve, poor fit]. For COc1c(C)c2c(c(O)c1C/C=C(\C)CCC(=O)O)C(=O)OC2, the AC50 was 951 nM [falling, full curve, poor fit]. In the case of c1ccc(-c2nc[nH]c2-c2ccccc2)cc1, the AC50 was 19900 nM [falling, partial curve, poor fit]. For CCCCC(=O)N(Cc1ccc(-c2ccccc2-c2nn[nH]n2)cc1)C(C(=O)O)C(C)C (stereo not given), the AC50 was 3160 nM [falling, full curve, poor fit]. With CN(C)CCN(Cc1cccs1)c1ccccn1 the AC50 was 2240 nM [falling, partial curve, poor fit]. With CO[C@H](C(=O)[C@@H](O)[C@@H](C)O)C1Cc2cc3cc(O[C@H]4C[C@@H](O[C@H]5C[C@@H](O)[C@H](O)[C@@H](C)O5)[C@@H](O)[C@@H](C)O4)c(C)c(O)c3c(O)c2C(=O)[C@H]1O[C@H]1C[C@@H](O[C@H]2C[C@@H](O[C@H]3C[C@](C)(O)[C@H](O)[C@@H](C)O3)[C@H](O)[C@@H](C)O2)[C@H](O)[C@@H](C)O1 (stereo not given in full) the AC50 was 446 nM [falling, full curve]. For Cc1ccc(O)c2ncccc12, the AC50 was 15.8 nM [falling, full curve, poor fit]. With O=C(O)C1=C(CSc2nnnn2CS(=O)(=O)O)CS[C@@H]2[C@H](NC(=O)[C@H](O)c3ccccc3)C(=O)N12 the AC50 was 1780 nM [falling, full curve, poor fit]. For CC=CC1=C(C(=O)O)N2C(=O)[C@H](NC(=O)[C@H](N)c3ccc(O)cc3)[C@@H]2SC1, the AC50 was 1410 nM [falling, full curve, poor fit]. For C[N+]12CCC(CC1)[C@@H](OC(=O)C(O)(c1ccccc1)c1ccccc1)C2, the AC50 was 4770 nM [falling, full curve, poor fit]. In the case of NS(=O)(=O)c1ccc(C(=O)O)cc1, the AC50 was 1260 nM [falling, full curve, poor fit].

Same assay, conditions: S16 rat Schwann cells, PMP22 element beta-lactamase FRET, 24 h; measured here: 530 nm viability channel
In the case of NC(=O)[C@H]1O[C@@H](O)[C@H](O)[C@@H](O)[C@@H]1O, the AC50 was 562 nM [falling, full curve]. With CCN(CC)CCOCCOC(=O)C(CC)(CC)c1ccccc1 (tested in a mixture with another compound) the AC50 was 11200 nM [rising, full curve, poor fit]. With O=C(O)c1ccc(OCCCOc2ccc(C(=O)O)cc2)cc1 the AC50 was 112 nM [falling, full curve, poor fit]. For NC(=O)NS(=O)(=O)c1ccc(N)cc1, the AC50 was 1780 nM [falling, full curve, poor fit]. With COc1ccc(CC(N)C(=O)NC2C(CO)OC(n3cnc4c(N(C)C)ncnc43)C2O)cc1 (stereo not given) the AC50 was 7940 nM [rising, full curve]. With COc1c(C)c2c(c(O)c1C/C=C(\C)CCC(=O)O)C(=O)OC2 the AC50 was 5010 nM [rising, single point]. For CCC(=O)OC1C(N(C)C)CC(C)O[C@H]1O[C@H]1[C@H](C)[C@@H](O[C@H]2CC(OC)[C@@H](O)C(C)O2)[C@H](C)C(=O)O[C@@H](CC)[C@](C)(O)[C@@H](O)[C@H](C)C(=O)[C@@H](C)C[C@]1(C)O (stereo not given in full), the AC50 was 1410 nM [falling, full curve]. In the case of O=C(O)CN(CC(=O)O)Cc1cc2c(-c3ccccc3C(=O)O)c3cc(CN(CC(=O)O)CC(=O)O)c(=O)cc-3oc2cc1O, the AC50 was 15800 nM [rising, partial curve]. With CCCCC(=O)N(Cc1ccc(-c2ccccc2-c2nn[nH]n2)cc1)C(C(=O)O)C(C)C (stereo not given) the AC50 was 2510 nM [falling, partial curve]. With CO[C@H](C(=O)[C@@H](O)[C@@H](C)O)C1Cc2cc3cc(O[C@H]4C[C@@H](O[C@H]5C[C@@H](O)[C@H](O)[C@@H](C)O5)[C@@H](O)[C@@H](C)O4)c(C)c(O)c3c(O)c2C(=O)[C@H]1O[C@H]1C[C@@H](O[C@H]2C[C@@H](O[C@H]3C[C@](C)(O)[C@H](O)[C@@H](C)O3)[C@H](O)[C@@H](C)O2)[C@H](O)[C@@H](C)O1 (stereo not given in full) the AC50 was 17800 nM [rising, partial curve]. In the case of CNC1C(O)C(OC2C(N)CC(N)C(OC3OC(CN)=CCC3N)C2O)OCC1(C)O (stereo not given), the AC50 was 3980 nM [falling, full curve]. For CC=CC1=C(C(=O)O)N2C(=O)[C@H](NC(=O)[C@H](N)c3ccc(O)cc3)[C@@H]2SC1, the AC50 was 1580 nM [falling, full curve, poor fit]. With C[N+]12CCC(CC1)[C@@H](OC(=O)C(O)(c1ccccc1)c1ccccc1)C2 the AC50 was 5010 nM [falling, full curve, poor fit]. With NS(=O)(=O)c1ccc(C(=O)O)cc1 the AC50 was 2000 nM [falling, full curve].
